PubChem BioAssay AID1259425, University of Nebraska Medical Center – 2018
The deposit covers about 14,000 reagents; below is an unselected part. A reagent listed more than once was tested more than once; the source does not tell the runs apart. Not all columns of the deposit are shown. Reagent sequences are not shown. Not stated in the record: the time to read-out.

Aim: 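Find knockdowns that reproduce the gene expression pattern seen when KSR1 is lost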 (primary screen)
Cell system: HCT116 human colon cancer cells
Reagent: siRNA pool against human genes, 50 nM siRNA
Measured: 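mRNA of six signature genes measured together by branched-DNA assay after 50 nM siRNA pool, blank removed, divided by geometric mean of two housekeeping genes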
Scale: BNIP3L mRNA: higher = more BNIP3L transcript after knockdown; NDRG1 mRNA: higher = more NDRG1 transcript after knockdown; BNIP3 mRNA: higher = more BNIP3 transcript after knockdown

The first 5 records as a preview:
| Gene | BNIP3L mRNA, set 1 | NDRG1 mRNA, set 1 | BNIP3 mRNA, set 1 |
| --- | --- | --- | --- |
| USP4 | 0.0488 | 0.107 | 0.296 |
| TBC1D24 | 0.0953 | 0.261 | 0.353 |
| PIP4K2B | 0.062 | 0.151 | 0.451 |
| REST | 0.0517 | 0.133 | 0.345 |
| IGSF3 | 0.0754 | 0.158 | 0.312 |

Results, from the start:
| Gene | BNIP3L mRNA, set 1 | NDRG1 mRNA, set 1 | BNIP3 mRNA, set 1 |
| --- | --- | --- | --- |
| USP4 | 0.0488 | 0.107 | 0.296 |
| TBC1D24 | 0.0953 | 0.261 | 0.353 |
| PIP4K2B | 0.062 | 0.151 | 0.451 |
| REST | 0.0517 | 0.133 | 0.345 |
| IGSF3 | 0.0754 | 0.158 | 0.312 |
| NYAP2 | 0.0821 | 0.768 | 0.383 |
| ADCY3 | 0.109 | 0.355 | 0.316 |
| MAP3K19 | 0.164 | 0.225 | 0.303 |
| RPS6KA1 | 0.0799 | 0.121 | 0.218 |
| IGHM | 0.146 | 0.123 | 0.192 |
| TXLNG | 0.0545 | 0.195 | 0.245 |
| TRPA1 | 0.0498 | 0.103 | 0.302 |
| TMEM123 | 0.0698 | 0.127 | 0.39 |
| ALPL | 0.0447 | 0.0786 | 0.34 |
| RPS11 | 0.0997 | 0.141 | 0.357 |
| CYP1A2 | 0.0718 | 0.19 | 0.351 |
| IL7 | 0.107 | 0.118 | 0.302 |
| NAGLU | 0.0831 | 0.139 | 0.222 |
| UBR7 | 0.0678 | 0.162 | 0.291 |
| TMTC4 | 0.304 | 0.169 | 0.433 |
| NUP160 | 0.0931 | 0.109 | 0.272 |
| DUSP11 | 0.0752 | 0.119 | 0.248 |
| AMIGO1 | 0.317 | 0.201 | 0.303 |
| TRAPPC2 | 0.212 | 0.215 | 0.313 |
| TIMMDC1 | 0.0797 | 0.179 | 0.282 |
| AP2M1 | 0.215 | 0.66 | 0.404 |
| CNOT1 | 0.108 | 0.744 | 0.485 |
| ADAM2 | 0.0784 | 0.397 | 0.364 |
| COX11 | 0.082 | 0.17 | 0.138 |
| COX15 | 0.013 | 0.0378 | 0.194 |
| YJU2B | 0.344 | 0.461 | 0.446 |
| OR7E5P | 0.191 | 0.126 | 0.305 |
| CCDC74A | 0.173 | 0.122 | 0.361 |
| HEPH | 0.128 | 0.186 | 0.245 |
| AP2S1 | 0.137 | 0.114 | 0.298 |
| ZNF395 | 0.193 | 0.126 | 0.306 |
| ANKMY1 | 0.103 | 0.0491 | 0.534 |
| ATAD1 | 0.0645 | 0.384 | 0.393 |
| PON3 | 0.112 | 0.124 | 0.209 |
| FICD | 0.0887 | 0.185 | 0.259 |
| RAP1GAP2 | 0.135 | 0.112 | 0.286 |
| ZNF469 | 0.209 | 1.26 | 0.27 |
| PRPF4 | 0.0802 | 0.15 | 0.224 |
| TGFB2 | 0.0792 | 0.103 | 0.258 |
| PLA1A | 0.115 | 0.206 | 0.302 |
| HOXD11 | 0.187 | 0.58 | 0.358 |
| CAPZB | 0.0926 | 0.0862 | 0.385 |
| ZNF516 | 0.101 | 0.107 | 0.421 |
| ZNF516 | 0.114 | 0.0921 | 0.343 |
| ZNF516 | 0.122 | 0.114 | 0.334 |
